PubChem BioAssay AID504764 | Drosophila RNAi Screening Center, 2011
In all, the deposit lists about 22,000 reagents; shown is a random part of those that have a named target and a result. Of all reagents, 403 (1.9%) were called active. 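Unnormalised raw counts per well; ratio z-scores behind the hit calls and whether each hit raises or lowers signal are not deposited.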 Reagents against one gene are numbered here. A plus sign joins genes that one reagent is predicted to hit. Reagent sequences are not shown. Not given: the amount of reagent.

- Test: 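Genome-wide screen for regulators of Notch-driven gene expression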 (primary screen)
- Cells: Drosophila Kc167 cells
- Knock-down reagent: long dsRNA against Drosophila genes
- Timing: about 5 days (4 days dsRNA, then 24 h after transfection)
- Conditions: transfection of constitutively active membrane-tethered Notch lacking the extracellular domain, read 24 h later
- Measurement: 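Firefly luciferase from an E(spl)m3 reporter with active Notch, plus control-promoter and uninduced reporter wells for normalisation; unnormalised counts, duplicate wells a and b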
- Reading the numbers: induced reporter light, run 1, well a and induced reporter light, run 1, well b: higher = more light from the Notch target reporter with active Notch; control promoter light, run 1, well a and control promoter light, run 1, well b: higher = more light from the viral control promoter (cell number, transfection, viability); uninduced reporter light, run 1, well a: higher = more light from the Notch target reporter without active Notch
- Rule for the call: 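Wells with low control signal or poorly matching duplicates excluded; duplicates averaged; per source plate, z beyond ±2 for induced/control log2 ratio or beyond ±1.8 for induced/uninduced marks a hit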
- Calls: active = modifier hit (raised or lowered Notch signal); inactive = not a hit

| gene | reagent | induced reporter light, run 1, well a | induced reporter light, run 1, well b | control promoter light, run 1, well a | control promoter light, run 1, well b | uninduced reporter light, run 1, well a | activity call |
| --- | --- | --- | --- | --- | --- | --- | --- |
| ALiX (GeneID 43330) | 1 | 63990 | 79285 | 81460 | 87020 | 4630 | inactive |
| CG14693 (GeneID 41299) | 1 | 46375 | 50185 | 49550 | 61490 | 3155 | inactive |
| Tsp29Fb (GeneID 34212) | 1 | 1.09e5 | 1.22e5 | 84970 | 90370 | 15700 | inactive |
| CG15255 (GeneID 34913) | 1 | 1.07e5 | 1.19e5 | 1.32e5 | 1.38e5 | 7715 | inactive |
| Jwa (GeneID 35128) | 1 | 2.25e5 | 2.08e5 | 2.47e5 | 1.93e5 | 16725 | inactive |
| Scox (GeneID 33711) | 1 | 34460 | 36675 | 34350 | 34785 | 2138 | inactive |
| Usp47 (GeneID 38644) | 1 | 99755 | 1.03e5 | 84570 | 34630 | 11160 | inactive |
| GstD2 (GeneID 48335) | 1 | 82510 | 90200 | 76340 | 59700 | 5385 | inactive |
| CG31730 (GeneID 318920) | 1 | 97875 | 1.20e5 | 1.71e5 | 1.37e5 | 6820 | inactive |
| adp (GeneID 37073) | 1 | 49350 | 46105 | 71950 | 76125 | 4488 | inactive |
| Tsf3 (GeneID 36800) | 1 | 1.11e5 | 1.19e5 | 2.28e5 | 2.41e5 | 11160 | inactive |
| eIF2alpha (GeneID 32617) | 1 | 7865 | 6185 | 8675 | 5255 | 350 | inactive |
| hiro (GeneID 38083) | 1 | 1.06e5 | 87345 | 1.67e5 | 1.97e5 | 7800 | inactive |
| His4:CG33883 + His4:CG33889 + His4:CG33899 + 20 more | 1 | 53585 | 48610 | 72530 | 88055 | 8395 | inactive |
| CG3918 (GeneID 31585) | 1 | 11390 | 12095 | 18295 | 17900 | 2655 | inactive |
| CG8534 (GeneID 41210) | 1 | 1.40e5 | 1.39e5 | 1.42e5 | 1.29e5 | 10338 | inactive |
| tok (GeneID 42944) | 1 | 24030 | 26825 | 22165 | 24560 | 1800 | inactive |
| CG31642 (GeneID 326149) | 1 | 1.08e5 | 1.01e5 | 94345 | 93965 | 6235 | inactive |
| CG12605 (GeneID 38468) | 1 | 1.17e5 | 97960 | 1.43e5 | 1.23e5 | 6070 | inactive |
| pr (GeneID 35292) | 1 | 1.99e5 | 1.86e5 | 1.85e5 | 2.15e5 | 14205 | inactive |
| dgo (GeneID 36139) | 1 | 1.82e5 | 1.55e5 | 1.62e5 | 1.37e5 | 13192 | inactive |
| CG15544 (GeneID 43655) | 1 | 1.08e5 | 1.03e5 | 1.66e5 | 1.60e5 | 9895 | inactive |
| SMC1 (GeneID 42853) | 1 | 1.15e5 | 1.08e5 | 1.42e5 | 1.48e5 | 9735 | inactive |
| CG3008 (GeneID 33693) | 1 | 1.38e5 | 1.10e5 | 1.67e5 | 1.34e5 | 8878 | inactive |
| CG34015 (GeneID 3885570) | 1 | 96700 | 87355 | 92420 | 1.04e5 | 7360 | inactive |
| Rop (GeneID 38493) | 1 | 1.54e5 | 1.33e5 | 1.17e5 | 38275 | 14260 | inactive |

5 entries from above, limited to “control promoter light, run 1, well b”.
eIF2alpha (GeneID 32617) = 5255
hiro (GeneID 38083) = 1.97e5
His4:CG33883 + His4:CG33889 + His4:CG33899 + 20 more = 88055
CG3918 (GeneID 31585) = 17900
CG8534 (GeneID 41210) = 1.29e5

The results go on.
| gene | reagent | induced reporter light, run 1, well a | induced reporter light, run 1, well b | control promoter light, run 1, well a | control promoter light, run 1, well b | uninduced reporter light, run 1, well a | activity call |
| --- | --- | --- | --- | --- | --- | --- | --- |
| Hmx (GeneID 42110) | 1 | 2.27e5 | 2.37e5 | 2.24e5 | 2.14e5 | 20545 | inactive |
| Hmx (GeneID 42110) | 2 | 1.65e5 | 1.73e5 | 1.35e5 | 1.32e5 | 12600 | inactive |
| Hmx (GeneID 42110) | 3 | – | – | – | – | – | inactive |
| CG10226 (GeneID 38725) | 1 | 1.40e5 | 1.01e5 | 63230 | 25365 | 10115 | inactive |
| CG14304 (GeneID 42232) | 1 | 59575 | 49115 | 40940 | 45485 | 4715 | inactive |
| Nepl14 (GeneID 42700) | 1 | 2.28e5 | 2.02e5 | 2.45e5 | 1.93e5 | 17770 | inactive |
| metro (GeneID 36176) | 1 | 1.90e5 | 2.09e5 | 1.96e5 | 2.02e5 | 18595 | inactive |
| metro (GeneID 36176) | 2 | 1.18e5 | 1.34e5 | 1.74e5 | 1.87e5 | 14580 | inactive |
| Pop4 (GeneID 38889) | 1 | 2.29e5 | 2.67e5 | 3.77e5 | 2.37e5 | 11240 | inactive |
| Sf3b5 (GeneID 50007) | 1 | 75805 | 72410 | 56865 | 60110 | 4855 | inactive |
| msl-2 (GeneID 33565) | 1 | 1.57e5 | 1.71e5 | 1.41e5 | 1.57e5 | 14738 | inactive |
| COX6AL2 (GeneID 40066) | 1 | 1.48e5 | 1.15e5 | 1.39e5 | 1.08e5 | 8450 | inactive |
| aux (GeneID 40527) | 1 | 1.10e5 | 1.14e5 | 72465 | 59625 | 7955 | inactive |
| HP4 (GeneID 38887) | 1 | 1.21e5 | 1.29e5 | 79835 | 32540 | 10000 | inactive |
| CG12219 (GeneID 31572) | 1 | 1.65e5 | 1.59e5 | 2.41e5 | 2.53e5 | 13130 | inactive |
| CG13334 (GeneID 36510) | 1 | 1.13e5 | 91265 | 1.04e5 | 1.09e5 | 8700 | inactive |
| CG15711 (GeneID 36834) | 1 | 1.46e5 | 96450 | 1.24e5 | 1.36e5 | 10995 | inactive |
| Chro (GeneID 40508) | 1 | 1.22e5 | 1.21e5 | 1.10e5 | 1.58e5 | 11040 | inactive |
| CG12581 (GeneID 40522) | 1 | 1.06e5 | 1.17e5 | 66495 | 77455 | 7570 | inactive |
| CG12581 (GeneID 40522) | 2 | 1.41e5 | 1.33e5 | 1.58e5 | 1.19e5 | 8155 | inactive |
| Crtc (GeneID 39970) | 1 | 31445 | 23410 | 38400 | 26690 | 2945 | inactive |
| Pus10 (GeneID 33178) | 1 | 1.96e5 | 2.01e5 | 2.43e5 | 2.80e5 | 18810 | inactive |
| FipoQ (GeneID 43475) | 1 | 1.55e5 | 1.64e5 | 1.48e5 | 1.54e5 | 11045 | inactive |
| ScpX (GeneID 44183) | 1 | 2.23e5 | 1.94e5 | 2.01e5 | 2.14e5 | 15935 | inactive |
